These are yes or no findings as the source states them, for the method shown. Binding seen in cells or lysates may run through a third protein. A result given as binding can be weak or reduced; the word gives no strength.
Columns and labels:
Assay in all cases: co-IP; HEK-293T cells co-transfected with a FLAG-tagged and a GFP-tagged construct, harvested 48 h later in HA-buffer (50 mM Tris-HCl pH 7.5, 150 mM NaCl, 2 mM EDTA, 1 mM EGTA, 1% Triton X-100); cleared lysate on anti-FLAG M2 affinity gel, 1 h, 4 °C; partners detected by Western blot with anti-GFP
[1] = molecular target: Atlantic salmon ssTyk2-1, FLAG-tagged (Atlantic salmon (Salmo salar)) (UniProt S5RRC4)
[2] = molecular target: Atlantic salmon IRF9, FLAG-tagged (Atlantic salmon (Salmo salar)) (UniProt B5X4X0)
[3] = molecular target: Atlantic salmon STAT1a, FLAG-tagged (Atlantic salmon (Salmo salar)) (UniProt C7EY83)

Row | Substance | binding [1] | binding [2] | binding [3]
1 | Atlantic salmon STAT1a, GFP-tagged (from UniProt C7EY83) | binds | binds | 
2 | Atlantic salmon STAT2a, GFP-tagged (from UniProt X2KK07) | binds | binds | binds
3 | Atlantic salmon STAT2b, GFP-tagged (from UniProt X2KN52) | binds | binds | binds

Reference: PMC4215117
